Data reported in the supplement of paper PMC5407854, “Inhibitor of ppGalNAc-T3-mediated O-glycosylation blocks cancer cell invasiveness and lowers FGF23 levels” (eLife, 2017).
The other results are listed elsewhere or left out. Small differences around the control level are noise.

What follows are compounds tested on ppGalNAc-T3 sensor (assay: T3 sensor activation Q score (MG/GFP ratio z-score vs DMSO controls) (SD units); higher = more sensor activation (inhibition of ppGalNAc-T3 glycosylation)). Details: HEK293 sensor cells; 10 µM; 6 h.
Method: (§1)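 Cells were treated with compound at 10 uM for 6 h, then MG/GFP ratio was read by flow cytometry (10,000 cells per well, duplicate wells). Q = (R - R_neg)/SD_neg relative to DMSO vehicle controls; the signal rises when the glycosyltransferase is inhibited.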

Row | SMILES | T3 sensor activation Q score
1 | COc1ccc(CN2CCN(c3cccc(C)c3C)CC2)cc1 | 0.7
2 | Fc1cccc(CN2CCN(c3ccccc3Cl)CC2)c1 | -0.03
3 | COc1ccc(N2CCN(Cc3cc(Br)ccc3OC)CC2)cc1 | 0.625
4 | COc1ccccc1N1CCN(Cc2ccccc2F)CC1 | 0.02
5 | COc1cc(Br)c(CN2CCN(c3ccccc3)CC2)cc1OC | 0.41
6 | COc1ccc(CN2CCN(c3ccccc3OC)CC2)cc1C | -0.695
7 | O=[N+]([O-])c1ccc(O)c(CN2CCN(c3ccccc3)CC2)c1 | -0.36
8 | O=[N+]([O-])c1ccc(NCCO)c2ncccc12 | 0.465
9 | COc1ccc(CN2CCN(c3ccccc3)CC2)c(C)c1C | -0.17
10 | CN1CCN(Cc2c(Cl)cccc2Cl)CC1 | 1.26
11 | COc1ccc(CN2CCN(c3ccccc3Cl)CC2)cc1 | -0.26
12 | Fc1cccc(CN2CCN(Cc3ccc4c(c3)OCO4)CC2)c1 | -1.22
13 | COc1ccc(N2CCN(Cc3ccc(F)cc3)CC2)cc1 | 0.17
14 | Cc1ccccc1CN1CCN(c2ccc(F)cc2)CC1 | 0.065
15 | Cc1ccccc1N1CCN(Cc2ccc3c(c2)OCO3)CC1 | 0.45
16 | CCOc1ccccc1N1CCN(Cc2ccccc2F)CC1 | -0.03
17 | COc1ccc(CN2CCN(c3ccccc3Cl)CC2)c(OC)c1 | -1.72
18 | CCOc1ccccc1CN1CCN(c2ccccc2Cl)CC1 | -0.345
19 | Fc1ccccc1CN1CCN(Cc2ccc3c(c2)OCO3)CC1 | -0.65
20 | Fc1ccccc1N1CCN(Cc2ccc(Cl)cc2)CC1 | 0.77

Row | SMILES | T3 sensor activation Q score
21 | Cc1ccccc1N1CCN(Cc2ccc([N+](=O)[O-])cc2)CC1 | 0.065
22 | O=[N+]([O-])c1cc(Cl)ccc1N1CCNCC1 | 0.26
23 | CCC1CN(C)CCC1(O)c1ccccc1 (configuration not stated) | 0.195
24 | O=[N+]([O-])c1ccc(N2CCN(Cc3cccc(Br)c3)CC2)cc1 | 0.615
25 | COc1ccc(CC(=O)N2CCN(C)CC2)cc1 | -0.15
26 | COc1cccc(N2CCN(Cc3cccc(Cl)c3)CC2)c1 | 0.815
27 | O=C1NC(=O)C(C(c2ccccc2)c2ccccc2)C(=O)N1 | 1.25
28 | Cc1ccccc1N1CCN(Cc2ccc(O)cc2)CC1 | 0.225
29 | Cc1ccccc1CN1C[C@@H]2C[C@@H](C1)c1cccc(=O)n1C2 | 0.475
30 | COc1cc(C)c(CN2CCN(c3ccccc3)CC2)cc1C | -0.35
31 | COc1ccc(CN2CCN(c3ccc(F)cc3)CC2)cc1C | -0.55
32 | Cc1ccc(C(CN)CC(=O)O)cc1 (configuration not stated) | 1.61
33 | Cc1cccc(N2CCN(Cc3ccc(N(C)C)cc3)CC2)c1C | -0.045
34 | CCN1CCN(Cc2c(F)cccc2F)CC1 | 0.465
35 | Clc1ccc(N2CCN(Cc3ccc4c(c3)OCO4)CC2)cc1 | -0.69
36 | COc1cccc(CN2CCN(C)CC2)c1OC | 0.235
37 | COc1cc(CN2CCN(c3ccccc3)CC2)cc(OC)c1O | 0.43
38 | O=[N+]([O-])c1ccccc1CN1CCN(c2ccc(Cl)cc2)CC1 | -0.135
39 | CN(C)c1ccc(CN2CCN(c3ccccc3Cl)CC2)cc1 | 0.15
40 | CCN1CCN(Cc2cccc([N+](=O)[O-])c2)CC1 | -0.385

Arranged by number of heavy atoms (rising): three of the compounds above
Row | SMILES | T3 sensor activation Q score
29 | Cc1ccccc1CN1C[C@@H]2C[C@@H](C1)c1cccc(=O)n1C2 | 0.475
31 | COc1ccc(CN2CCN(c3ccc(F)cc3)CC2)cc1C | -0.55
37 | COc1cc(CN2CCN(c3ccccc3)CC2)cc(OC)c1O | 0.43

These compounds were tested on ppGalNAc-T2 sensor (assay: T2 sensor activation Q score (MG/GFP ratio z-score vs DMSO controls) (SD units); higher = more sensor activation (inhibition of ppGalNAc-T2 glycosylation)). Details: HEK293 sensor cells; 10 µM; 6 h.
Method: as §1

Row | SMILES | T2 sensor activation Q score
41 | Fc1cccc(CN2CCN(Cc3ccc4c(c3)OCO4)CC2)c1 | -0.665
42 | O=[N+]([O-])c1ccc(N2CCN(Cc3cccc(Br)c3)CC2)cc1 | 0.155
43 | COc1cccc(N2CCN(Cc3cccc(Cl)c3)CC2)c1 | -0.38
44 | COc1ccc(CN2CCN(c3ccc(F)cc3)CC2)cc1C | -0.175
45 | Cc1ccc(C(CN)CC(=O)O)cc1 (configuration not stated) | 0.52
46 | Cc1cccc(N2CCN(Cc3ccc(N(C)C)cc3)CC2)c1C | 0.655
47 | COc1cccc(CN2CCN(C)CC2)c1OC | 0.69
